In publication PMC10897178, “FANCJ DNA helicase is recruited to the replisome by AND-1 to ensure genome stability” (EMBO Reports, 2024):
No constants are given. Whether binding was seen depends on the method and setting. Binding seen in cells or lysates may run through a third protein. Some binding calls cover weakened binding; strength is not graded here. Sequences can lack the tags named with a protein.

Tests used:
Assay in all cases: co-IP; anti-Flag agarose beads; whole extracts of HeLa FJ-KO cells transiently transfected with Flag-FANCJ WT or mutants; Western blot
[1] = target: T1, Flag-tagged FANCJ D736H (in HeLa FJ-KO cells) (human) (UniProt Q9BX63)
T1 sequence: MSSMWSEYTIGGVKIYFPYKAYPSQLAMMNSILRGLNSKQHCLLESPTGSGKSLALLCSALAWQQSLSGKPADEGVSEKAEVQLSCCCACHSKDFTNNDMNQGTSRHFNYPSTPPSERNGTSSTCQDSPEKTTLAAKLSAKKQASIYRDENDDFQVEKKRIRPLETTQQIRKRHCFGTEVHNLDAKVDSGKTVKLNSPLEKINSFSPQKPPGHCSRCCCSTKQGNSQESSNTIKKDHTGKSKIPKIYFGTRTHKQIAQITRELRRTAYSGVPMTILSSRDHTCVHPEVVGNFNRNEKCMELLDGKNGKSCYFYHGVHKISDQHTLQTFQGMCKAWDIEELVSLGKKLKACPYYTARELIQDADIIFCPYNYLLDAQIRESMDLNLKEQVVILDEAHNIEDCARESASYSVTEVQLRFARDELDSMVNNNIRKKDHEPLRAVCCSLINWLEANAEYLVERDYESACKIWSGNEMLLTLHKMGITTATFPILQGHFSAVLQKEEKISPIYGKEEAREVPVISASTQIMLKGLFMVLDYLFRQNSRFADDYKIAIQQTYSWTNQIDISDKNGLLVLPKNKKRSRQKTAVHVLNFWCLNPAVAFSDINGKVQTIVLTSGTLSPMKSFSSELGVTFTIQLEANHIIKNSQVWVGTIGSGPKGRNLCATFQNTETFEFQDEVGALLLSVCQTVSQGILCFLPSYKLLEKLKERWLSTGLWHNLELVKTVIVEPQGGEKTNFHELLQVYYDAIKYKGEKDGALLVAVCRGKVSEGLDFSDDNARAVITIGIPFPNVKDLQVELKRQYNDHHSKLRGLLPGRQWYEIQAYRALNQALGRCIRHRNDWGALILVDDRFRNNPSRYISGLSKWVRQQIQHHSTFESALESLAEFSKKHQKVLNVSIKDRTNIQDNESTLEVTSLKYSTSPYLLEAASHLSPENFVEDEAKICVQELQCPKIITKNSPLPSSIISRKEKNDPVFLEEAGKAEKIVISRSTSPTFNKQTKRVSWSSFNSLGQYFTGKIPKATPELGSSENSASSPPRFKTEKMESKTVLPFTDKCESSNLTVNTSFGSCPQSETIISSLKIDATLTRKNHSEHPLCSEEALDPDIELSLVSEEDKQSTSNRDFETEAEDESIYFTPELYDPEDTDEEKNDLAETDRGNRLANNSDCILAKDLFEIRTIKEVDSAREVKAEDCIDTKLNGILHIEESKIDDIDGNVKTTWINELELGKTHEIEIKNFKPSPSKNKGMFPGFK

[2] = target: T2, Flag-tagged FANCJ N734H (in HeLa FJ-KO cells) (human) (UniProt Q9BX63)
T2 sequence: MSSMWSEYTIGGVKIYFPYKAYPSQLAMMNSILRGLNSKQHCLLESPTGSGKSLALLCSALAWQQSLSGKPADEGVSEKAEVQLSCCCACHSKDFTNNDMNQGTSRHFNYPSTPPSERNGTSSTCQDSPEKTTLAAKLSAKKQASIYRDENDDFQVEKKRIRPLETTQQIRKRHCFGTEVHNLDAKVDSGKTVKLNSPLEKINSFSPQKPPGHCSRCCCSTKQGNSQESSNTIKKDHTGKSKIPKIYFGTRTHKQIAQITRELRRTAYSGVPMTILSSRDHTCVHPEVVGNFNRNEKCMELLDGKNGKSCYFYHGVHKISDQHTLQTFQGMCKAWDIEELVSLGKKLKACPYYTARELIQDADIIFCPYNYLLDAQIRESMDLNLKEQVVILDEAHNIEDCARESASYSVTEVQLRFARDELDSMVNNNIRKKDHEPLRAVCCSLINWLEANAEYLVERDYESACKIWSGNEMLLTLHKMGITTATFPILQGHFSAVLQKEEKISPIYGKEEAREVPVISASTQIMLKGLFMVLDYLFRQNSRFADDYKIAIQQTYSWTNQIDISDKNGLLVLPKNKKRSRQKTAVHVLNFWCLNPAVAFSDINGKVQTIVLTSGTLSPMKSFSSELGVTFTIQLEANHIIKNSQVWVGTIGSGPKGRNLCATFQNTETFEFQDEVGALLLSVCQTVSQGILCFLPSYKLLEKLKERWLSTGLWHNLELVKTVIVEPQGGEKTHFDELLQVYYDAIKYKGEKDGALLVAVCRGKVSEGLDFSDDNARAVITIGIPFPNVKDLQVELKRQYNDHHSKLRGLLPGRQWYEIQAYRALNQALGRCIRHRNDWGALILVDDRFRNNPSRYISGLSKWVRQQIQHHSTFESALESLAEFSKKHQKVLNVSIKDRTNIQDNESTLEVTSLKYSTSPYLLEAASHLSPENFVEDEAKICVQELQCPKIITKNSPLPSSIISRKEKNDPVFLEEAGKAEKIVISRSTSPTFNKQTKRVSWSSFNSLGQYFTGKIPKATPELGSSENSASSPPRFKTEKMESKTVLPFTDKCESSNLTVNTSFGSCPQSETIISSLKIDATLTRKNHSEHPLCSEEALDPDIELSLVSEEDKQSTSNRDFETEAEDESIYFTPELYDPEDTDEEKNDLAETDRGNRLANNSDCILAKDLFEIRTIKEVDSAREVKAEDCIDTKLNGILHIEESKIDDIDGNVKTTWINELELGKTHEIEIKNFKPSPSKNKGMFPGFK

[3] = target: T3, Flag-tagged FANCJ wild type (in HeLa FJ-KO cells) (human) (UniProt Q9BX63)
T3 sequence: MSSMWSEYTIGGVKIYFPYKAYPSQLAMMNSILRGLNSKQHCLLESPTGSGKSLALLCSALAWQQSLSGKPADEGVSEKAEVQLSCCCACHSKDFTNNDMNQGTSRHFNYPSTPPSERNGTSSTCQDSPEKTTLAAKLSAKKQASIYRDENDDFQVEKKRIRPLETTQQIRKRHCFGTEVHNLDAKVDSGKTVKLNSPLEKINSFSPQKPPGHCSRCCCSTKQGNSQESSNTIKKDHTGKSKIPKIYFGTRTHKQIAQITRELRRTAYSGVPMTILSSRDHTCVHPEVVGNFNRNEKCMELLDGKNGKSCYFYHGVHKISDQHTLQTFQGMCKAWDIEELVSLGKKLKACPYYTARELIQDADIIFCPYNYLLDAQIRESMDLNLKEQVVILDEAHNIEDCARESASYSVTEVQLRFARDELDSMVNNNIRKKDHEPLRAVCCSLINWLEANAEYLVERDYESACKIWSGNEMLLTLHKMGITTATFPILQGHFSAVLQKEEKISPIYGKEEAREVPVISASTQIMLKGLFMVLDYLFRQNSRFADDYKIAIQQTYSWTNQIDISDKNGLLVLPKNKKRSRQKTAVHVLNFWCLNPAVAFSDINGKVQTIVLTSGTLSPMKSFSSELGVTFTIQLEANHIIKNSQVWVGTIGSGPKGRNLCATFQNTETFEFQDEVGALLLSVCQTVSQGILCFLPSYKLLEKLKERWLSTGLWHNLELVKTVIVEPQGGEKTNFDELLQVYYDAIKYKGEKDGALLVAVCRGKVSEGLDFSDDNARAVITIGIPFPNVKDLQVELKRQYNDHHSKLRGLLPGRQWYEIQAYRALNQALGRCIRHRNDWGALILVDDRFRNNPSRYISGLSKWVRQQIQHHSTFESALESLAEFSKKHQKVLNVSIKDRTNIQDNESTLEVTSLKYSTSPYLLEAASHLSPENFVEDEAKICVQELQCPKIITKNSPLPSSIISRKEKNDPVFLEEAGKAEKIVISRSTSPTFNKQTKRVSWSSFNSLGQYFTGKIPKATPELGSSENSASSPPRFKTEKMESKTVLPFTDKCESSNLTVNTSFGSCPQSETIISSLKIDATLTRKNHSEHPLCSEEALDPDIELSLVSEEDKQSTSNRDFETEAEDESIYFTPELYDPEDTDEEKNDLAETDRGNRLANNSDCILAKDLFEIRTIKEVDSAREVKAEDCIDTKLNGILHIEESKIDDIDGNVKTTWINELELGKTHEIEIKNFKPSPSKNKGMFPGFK

- binding [1]: binds
- binding [2]: binds
- binding [3]: binds
B1: endogenous AND-1 (HeLa FJ-KO) (protein, UniProt O75717 1-1129)
chain: MPATRKPMRYGHTEGHTEVCFDDSGSFIVTCGSDGDVRIWEDLDDDDPKFINVGEKAYSCALKSGKLVTAVSNNTIQVHTFPEGVPDGILTRFTTNANHVVFNGDGTKIAAGSSDFLVKIVDVMDSSQQKTFRGHDAPVLSLSFDPKDIFLASASCDGSVRVWQISDQTCAISWPLLQKCNDVINAKSICRLAWQPKSGKLLAIPVEKSVKLYRRESWSHQFDLSDNFISQTLNIVTWSPCGQYLAAGSINGLIIVWNVETKDCMERVKHEKGYAICGLAWHPTCGRISYTDAEGNLGLLENVCDPSGKTSSSKVSSRVEKDYNDLFDGDDMSNAGDFLNDNAVEIPSFSKGIINDDEDDEDLMMASGRPRQRSHILEDDENSVDISMLKTGSSLLKEEEEDGQEGSIHNLPLVTSQRPFYDGPMPTPRQKPFQSGSTPLHLTHRFMVWNSIGIIRCYNDEQDNAIDVEFHDTSIHHATHLSNTLNYTIADLSHEAILLACESTDELASKLHCLHFSSWDSSKEWIIDLPQNEDIEAICLGQGWAAAATSALLLRLFTIGGVQKEVFSLAGPVVSMAGHGEQLFIVYHRGTGFDGDQCLGVQLLELGKKKKQILHGDPLPLTRKSYLAWIGFSAEGTPCYVDSEGIVRMLNRGLGNTWTPICNTREHCKGKSDHYWVVGIHENPQQLRCIPCKGSRFPPTLPRPAVAILSFKLPYCQIATEKGQMEEQFWRSVIFHNHLDYLAKNGYEYEESTKNQATKEQQELLMKMLALSCKLEREFRCVELADLMTQNAVNLAIKYASRSRKLILAQKLSELAVEKAAELTATQVEEEEEEEDFRKKLNAGYSNTATEWSQPRFRNQVEEDAEDSGEADDEEKPEIHKPGQNSFSKSTNSSDVSAKSGAVTFSSQGRVNPFKVSASSKEPAMSMNSARSTNILDNMGKSSKKSTALSRTTNNEKSPIIKPLIPKPKPKQASAASYFQKRNSQTNKTEEVKEENLKNVLSETPAICPPQNTENQRPKTGFQMWLEENRSNILSDNPDFSDEADIIKEGMIRFRVLSTEERKVWANKAKGETASEGTEAKKRKRVVDESDETENQEEKAKENLNLSKKQKPLDFSTNQKLSAFAFKQE
